In the supplement of paper PMC10849652:
Some of the results follow.

The chains behind the UniProt entries cited, without tags or fusion partners. Where a name states a change or a piece, a line headed by the entry shows the natural chain unless it says otherwise.
UniProt P05387, whole entry, looked up: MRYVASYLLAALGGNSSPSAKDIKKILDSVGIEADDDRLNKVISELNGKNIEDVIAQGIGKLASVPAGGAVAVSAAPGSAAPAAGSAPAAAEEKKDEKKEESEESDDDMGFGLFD
UniProt Q9Y3I0: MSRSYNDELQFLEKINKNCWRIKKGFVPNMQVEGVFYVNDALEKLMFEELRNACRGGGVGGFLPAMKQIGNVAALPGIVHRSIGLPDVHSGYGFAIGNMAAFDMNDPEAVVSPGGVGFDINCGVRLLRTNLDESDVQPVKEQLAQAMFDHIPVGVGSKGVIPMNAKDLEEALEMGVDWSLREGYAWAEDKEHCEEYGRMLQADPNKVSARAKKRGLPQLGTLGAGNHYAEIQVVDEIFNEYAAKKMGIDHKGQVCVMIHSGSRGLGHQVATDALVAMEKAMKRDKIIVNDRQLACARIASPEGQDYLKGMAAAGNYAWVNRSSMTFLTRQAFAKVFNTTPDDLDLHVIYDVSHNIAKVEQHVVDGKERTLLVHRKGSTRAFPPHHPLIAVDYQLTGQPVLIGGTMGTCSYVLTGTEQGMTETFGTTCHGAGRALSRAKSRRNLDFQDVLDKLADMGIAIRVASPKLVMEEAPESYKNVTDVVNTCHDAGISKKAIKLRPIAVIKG
UniProt Q14684: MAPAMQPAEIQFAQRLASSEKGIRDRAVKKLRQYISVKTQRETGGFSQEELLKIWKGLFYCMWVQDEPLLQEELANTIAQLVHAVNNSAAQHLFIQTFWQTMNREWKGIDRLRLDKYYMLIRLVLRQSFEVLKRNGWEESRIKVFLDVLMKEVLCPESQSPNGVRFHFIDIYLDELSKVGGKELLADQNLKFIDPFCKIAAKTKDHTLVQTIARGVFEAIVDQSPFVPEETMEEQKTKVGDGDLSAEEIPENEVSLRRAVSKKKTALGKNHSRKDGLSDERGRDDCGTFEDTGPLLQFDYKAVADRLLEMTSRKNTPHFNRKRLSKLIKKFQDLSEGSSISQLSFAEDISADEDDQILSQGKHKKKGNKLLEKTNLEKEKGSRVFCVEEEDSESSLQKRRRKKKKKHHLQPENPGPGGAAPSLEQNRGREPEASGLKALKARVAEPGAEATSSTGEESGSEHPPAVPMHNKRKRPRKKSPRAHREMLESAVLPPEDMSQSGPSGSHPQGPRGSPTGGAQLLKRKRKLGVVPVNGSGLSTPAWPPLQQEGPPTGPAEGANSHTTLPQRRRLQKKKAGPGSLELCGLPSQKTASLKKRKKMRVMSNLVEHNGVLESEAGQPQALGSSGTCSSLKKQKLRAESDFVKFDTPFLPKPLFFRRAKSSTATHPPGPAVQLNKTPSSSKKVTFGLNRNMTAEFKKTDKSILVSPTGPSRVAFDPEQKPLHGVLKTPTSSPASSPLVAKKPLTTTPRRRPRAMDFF
UniProt Q6PCB5: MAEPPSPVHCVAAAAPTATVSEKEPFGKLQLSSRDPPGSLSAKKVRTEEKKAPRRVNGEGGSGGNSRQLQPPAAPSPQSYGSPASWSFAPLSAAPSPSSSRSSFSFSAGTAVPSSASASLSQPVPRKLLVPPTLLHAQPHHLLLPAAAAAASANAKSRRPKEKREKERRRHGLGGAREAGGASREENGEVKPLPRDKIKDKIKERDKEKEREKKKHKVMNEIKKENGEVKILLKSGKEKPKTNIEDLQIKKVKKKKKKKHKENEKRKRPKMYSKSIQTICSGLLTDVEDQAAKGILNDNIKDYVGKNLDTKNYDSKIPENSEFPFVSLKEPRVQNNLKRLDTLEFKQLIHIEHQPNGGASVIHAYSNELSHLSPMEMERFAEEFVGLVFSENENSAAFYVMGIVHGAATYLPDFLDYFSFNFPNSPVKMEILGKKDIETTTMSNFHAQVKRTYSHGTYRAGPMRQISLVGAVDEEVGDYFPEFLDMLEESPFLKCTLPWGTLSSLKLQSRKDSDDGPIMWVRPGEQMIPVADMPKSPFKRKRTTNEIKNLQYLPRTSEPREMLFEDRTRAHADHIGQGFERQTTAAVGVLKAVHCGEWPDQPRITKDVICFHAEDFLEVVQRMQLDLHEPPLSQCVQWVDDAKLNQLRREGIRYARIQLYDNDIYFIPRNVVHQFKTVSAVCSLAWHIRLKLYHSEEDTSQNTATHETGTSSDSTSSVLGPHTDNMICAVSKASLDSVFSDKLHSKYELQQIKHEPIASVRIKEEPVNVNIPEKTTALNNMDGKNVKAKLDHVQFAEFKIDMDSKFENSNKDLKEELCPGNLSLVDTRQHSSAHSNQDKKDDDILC
UniProt Q8N488: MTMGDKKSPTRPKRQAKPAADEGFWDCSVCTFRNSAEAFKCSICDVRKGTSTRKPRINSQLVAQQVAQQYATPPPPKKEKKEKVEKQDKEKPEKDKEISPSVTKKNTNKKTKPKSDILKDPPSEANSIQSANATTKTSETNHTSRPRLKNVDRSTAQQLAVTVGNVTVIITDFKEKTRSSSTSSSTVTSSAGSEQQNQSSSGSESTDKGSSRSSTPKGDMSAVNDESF
UniProt Q8WWV3: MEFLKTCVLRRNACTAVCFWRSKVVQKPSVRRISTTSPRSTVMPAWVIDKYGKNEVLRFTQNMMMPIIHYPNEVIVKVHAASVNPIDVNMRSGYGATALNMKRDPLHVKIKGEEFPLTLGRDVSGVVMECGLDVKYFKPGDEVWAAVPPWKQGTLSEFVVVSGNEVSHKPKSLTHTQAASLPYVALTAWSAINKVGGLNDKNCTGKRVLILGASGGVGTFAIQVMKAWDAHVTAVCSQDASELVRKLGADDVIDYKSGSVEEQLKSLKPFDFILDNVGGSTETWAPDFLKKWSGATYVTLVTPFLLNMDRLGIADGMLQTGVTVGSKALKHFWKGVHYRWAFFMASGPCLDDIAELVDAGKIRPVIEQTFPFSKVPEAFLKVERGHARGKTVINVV
UniProt P23921: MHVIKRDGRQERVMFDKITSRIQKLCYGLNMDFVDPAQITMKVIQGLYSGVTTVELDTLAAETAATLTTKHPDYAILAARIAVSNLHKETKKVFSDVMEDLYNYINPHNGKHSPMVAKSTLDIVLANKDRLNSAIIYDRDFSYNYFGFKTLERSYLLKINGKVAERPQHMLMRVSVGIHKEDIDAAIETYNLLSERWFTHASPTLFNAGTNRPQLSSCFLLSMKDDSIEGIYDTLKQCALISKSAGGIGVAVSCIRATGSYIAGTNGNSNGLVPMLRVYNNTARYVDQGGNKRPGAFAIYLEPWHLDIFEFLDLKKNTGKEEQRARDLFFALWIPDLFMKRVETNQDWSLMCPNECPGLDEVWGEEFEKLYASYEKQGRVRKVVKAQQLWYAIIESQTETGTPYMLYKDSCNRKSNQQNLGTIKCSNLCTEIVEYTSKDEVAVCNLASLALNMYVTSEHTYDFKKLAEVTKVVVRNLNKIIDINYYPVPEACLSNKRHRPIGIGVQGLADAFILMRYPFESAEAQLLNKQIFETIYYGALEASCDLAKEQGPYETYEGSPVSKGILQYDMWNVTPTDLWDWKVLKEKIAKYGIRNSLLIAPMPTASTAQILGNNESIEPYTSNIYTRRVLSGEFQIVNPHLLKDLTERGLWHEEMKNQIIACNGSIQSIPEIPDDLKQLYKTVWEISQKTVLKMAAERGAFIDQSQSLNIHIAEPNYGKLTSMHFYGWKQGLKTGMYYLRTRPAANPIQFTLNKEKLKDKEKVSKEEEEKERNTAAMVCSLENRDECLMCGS
UniProt P78345: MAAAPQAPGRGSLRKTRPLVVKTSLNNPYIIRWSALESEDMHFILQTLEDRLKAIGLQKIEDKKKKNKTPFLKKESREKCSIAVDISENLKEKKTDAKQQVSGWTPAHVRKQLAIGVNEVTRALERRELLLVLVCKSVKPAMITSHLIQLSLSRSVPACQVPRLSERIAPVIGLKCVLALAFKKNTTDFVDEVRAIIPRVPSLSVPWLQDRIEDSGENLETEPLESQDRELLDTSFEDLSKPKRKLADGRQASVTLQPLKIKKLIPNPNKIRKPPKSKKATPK
UniProt Q5VWQ0: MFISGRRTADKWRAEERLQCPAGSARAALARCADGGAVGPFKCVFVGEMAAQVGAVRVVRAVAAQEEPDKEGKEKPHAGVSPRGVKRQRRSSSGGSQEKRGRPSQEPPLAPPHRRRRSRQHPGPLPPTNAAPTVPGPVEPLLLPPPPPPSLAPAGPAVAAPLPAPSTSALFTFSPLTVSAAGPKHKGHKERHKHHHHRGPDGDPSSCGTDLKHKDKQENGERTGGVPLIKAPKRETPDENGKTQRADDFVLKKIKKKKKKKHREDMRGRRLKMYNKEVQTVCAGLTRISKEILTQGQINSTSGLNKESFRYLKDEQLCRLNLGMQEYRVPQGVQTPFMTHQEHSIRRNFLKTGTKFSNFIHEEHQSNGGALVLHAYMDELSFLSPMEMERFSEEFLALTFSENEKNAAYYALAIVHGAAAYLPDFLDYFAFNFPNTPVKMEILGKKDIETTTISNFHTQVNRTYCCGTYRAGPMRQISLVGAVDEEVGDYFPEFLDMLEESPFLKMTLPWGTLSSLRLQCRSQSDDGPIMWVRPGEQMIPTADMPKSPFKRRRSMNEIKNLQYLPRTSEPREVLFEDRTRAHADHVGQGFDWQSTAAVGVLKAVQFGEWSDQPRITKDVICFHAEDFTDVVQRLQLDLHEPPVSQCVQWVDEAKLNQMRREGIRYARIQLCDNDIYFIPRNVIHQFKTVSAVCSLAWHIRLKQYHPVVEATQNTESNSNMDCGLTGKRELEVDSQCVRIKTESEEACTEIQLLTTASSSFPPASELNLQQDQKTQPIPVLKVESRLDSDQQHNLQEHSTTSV
UniProt O43818: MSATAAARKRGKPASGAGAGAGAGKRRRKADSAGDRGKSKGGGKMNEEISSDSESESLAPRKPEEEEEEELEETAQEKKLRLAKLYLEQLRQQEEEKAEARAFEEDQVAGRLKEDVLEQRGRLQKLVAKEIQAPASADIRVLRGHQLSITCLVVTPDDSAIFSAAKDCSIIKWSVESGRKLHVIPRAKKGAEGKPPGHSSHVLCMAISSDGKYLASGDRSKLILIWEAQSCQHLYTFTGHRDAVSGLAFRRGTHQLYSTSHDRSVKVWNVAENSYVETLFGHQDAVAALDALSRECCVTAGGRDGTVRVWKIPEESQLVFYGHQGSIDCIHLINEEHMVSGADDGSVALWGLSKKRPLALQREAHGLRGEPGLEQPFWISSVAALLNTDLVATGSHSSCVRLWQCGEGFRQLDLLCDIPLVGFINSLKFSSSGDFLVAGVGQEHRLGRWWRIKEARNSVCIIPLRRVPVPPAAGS

Tests used:
Assay in all cases: log2 fold change, soluble protein after heating vs DMSO (PISA); higher = thermal stabilisation; K562 lysate, 10 uM; active = over 0.2 and 3.5 SD of the protein, either way, in both replicates (recomputed)
vemurafenib = compound: CCCS(=O)(=O)Nc1ccc(F)c(C(=O)c2c[nH]c3ncc(-c4ccc(Cl)cc4)cc23)c1F [vemurafenib]
Procedure, shortened: (§1)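 The values are log-two fold changes in thermal stability compared with solvent controls and come from duplicates. They were obtained by TMTpro 16plex LC-MS/MS, with channel sums equalised, on the supernatant after 21,000xg for 90 min. That supernatant came from crude K562 extract at 1 mg/mL protein treated with 10 μM compound for 30 min, heated for 3 min across 48°C-58°C, pooled and brought to 0.5% NP-40 at 4°C.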

[1] = compound: CCCS(=O)(=O)Nc1ccc(F)c(C(=O)c2c[nH]c3ncc(Cl)cc23)c1F
Procedure, shortened: as §1

barasertib = compound: CCN(CCCOc1ccc2c(Nc3cc(CC(=O)Nc4cccc(F)c4)[nH]n3)ncnc2c1)CCOP(=O)(O)O [barasertib]
Procedure, shortened: as §1

[2] = compound: CC[C@@H]1C(=O)N(C)c2cnc(Nc3ccc(C(=O)NC4CCN(C)CC4)cc3OC)nc2N1C1CCCC1
Procedure, shortened: as §1

volasertib = compound: CC[C@@H]1C(=O)N(C)c2cnc(Nc3ccc(C(=O)N[C@H]4CC[C@H](N5CCN(CC6CC6)CC5)CC4)cc3OC)nc2N1C(C)C [volasertib]
Procedure, shortened: as §1

[3] = compound: CCn1c(C(=O)N(C2CC2)C2CC2)cc2c3c(ncn3C)c(Nc3cc(C)n(C)n3)nc21
Procedure, shortened: as §1

[4] = compound: CCn1cc(-c2ccnc3[nH]c(-c4cccc(CN(C)C)c4)cc23)c(-c2ccc(NC(=O)N(C)C)cc2)n1
Procedure, shortened: as §1

[5] = compound: CN1CCC(CNc2ccc3ncc(-c4cccc(OC(F)(F)F)c4)n3n2)CC1
Procedure, shortened: as §1

saracatinib = compound: CN1CCN(CCOc2cc(OC3CCOCC3)c3c(Nc4c(Cl)ccc5c4OCO5)ncnc3c2)CC1 [saracatinib]
Procedure, shortened: as §1

sotrastaurin = compound: CN1CCN(c2nc(C3=C(c4c[nH]c5ccccc45)C(=O)NC3=O)c3ccccc3n2)CC1 [sotrastaurin]
Procedure, shortened: as §1

alvocidib = compound: CN1CC[C@H](c2c(O)cc(O)c3c(=O)cc(-c4ccccc4Cl)oc23)[C@H](O)C1 [alvocidib]
Procedure, shortened: as §1

Tubastatin A = compound: CN1CCc2c(c3ccccc3n2Cc2ccc(C(=O)NO)cc2)C1 [Tubastatin A]
Procedure, shortened: as §1

[6] = compound: CNC(=O)C1=CC=CC=C1NC2=NC(=NC=C2Cl)NC3=C(C=C(C=C3)N4CCOCC4)OC
Procedure, shortened: as §1

defactinib = compound: CNC(=O)c1ccc(Nc2ncc(C(F)(F)F)c(NCc3nccnc3N(C)S(C)(=O)=O)n2)cc1 [defactinib]
Procedure, shortened: as §1

[7] = compound: CNc1nc(-c2ccc3c(N)n[nH]c3c2)cc(N2C[C@@H](C(=O)NC3CCCCC3)CC[C@H]2C)n1
Procedure, shortened: as §1

encorafenib = compound: COC(=O)N[C@@H](C)CNc1nccc(-c2cn(C(C)C)nc2-c2cc(Cl)cc(NS(C)(=O)=O)c2F)n1 [encorafenib]
Procedure, shortened: as §1

[8] = compound: COC(=O)[C@H](CCSC)NC(=O)C1=C(C=C(C=C1)NC[C@H](CS)N)C2=CC=CC=C2
Procedure, shortened: as §1

alisertib = compound: COc1cc(Nc2ncc3c(n2)-c2ccc(Cl)cc2C(c2c(F)cccc2OC)=NC3)ccc1C(=O)O [alisertib]
Procedure, shortened: as §1

[9] = compound: COc1cc2nc(-c3cc(F)ccc3O)nc(N[C@@H]3CNC[C@H]3C(C)(C)O)c2cc1OC
Procedure, shortened: as §1

gefitinib = compound: COc1cc2ncnc(Nc3ccc(F)c(Cl)c3)c2cc1OCCCN1CCOCC1 [gefitinib]
Procedure, shortened: as §1

Measured: log2 fold change

RPLP2 (UniProt P05387)
inactive: vemurafenib 0.046 | [1] -0.004 | barasertib 0.079 | [2] -0.008 | volasertib 0.04 | [3] -0.023 | [4] 0.018 | [5] -0.058 | saracatinib 0.021 | sotrastaurin -0.003 | alvocidib 0.011 | Tubastatin A 0.041 | [6] 0.024 | defactinib 0.002 | [7] -0.03 | encorafenib -0.003 | [8] -0.016 | alisertib 0.049 | [9] 0.005 | gefitinib -0.033

RTCB (UniProt Q9Y3I0)
inactive: vemurafenib 0.003 | [1] 0.018 | barasertib -0.023 | [2] -0.027 | volasertib -0.028 | [3] 0.028 | [4] -0.049 | [5] 0.029 | saracatinib -0.009 | sotrastaurin 0.016 | alvocidib -0.003 | Tubastatin A -0.041 | [6] -0.022 | defactinib 0.01 | [7] -0.051 | encorafenib -0.035 | [8] 0.057 | alisertib 0.008 | [9] -0.009 | gefitinib 0.008

RRP1B (UniProt Q14684)
inactive: vemurafenib 0.02 | [1] 0.027 | barasertib 0.081 | [2] 0.012 | volasertib -0.055 | [3] -0.024 | [4] 0.031 | [5] -0.018 | saracatinib 0 | sotrastaurin 0.04 | alvocidib -0.008 | Tubastatin A -0.05 | [6] 0.017 | defactinib -0.074 | [7] 0.044 | encorafenib 0.048 | [8] 0.024 | alisertib 0.001 | [9] 0.002 | gefitinib -0.018

RPS11 (UniProt P62280)
inactive: vemurafenib -0.014 | [1] -0.019 | barasertib -0.019 | [2] -0.036 | volasertib 0.001 | [3] 0.01 | [4] 0.044 | [5] -0.087 | saracatinib -0.056 | sotrastaurin -0.016 | alvocidib 0.043 | Tubastatin A -0.001 | [6] -0.011 | defactinib -0.004 | [7] 0 | encorafenib -0.041 | [8] 0.062 | alisertib 0.001 | [9] 0.011 | gefitinib -0.022

RSBN1L (UniProt Q6PCB5)
inactive: vemurafenib 0.125 | [1] 0.191 | barasertib -0.029 | [2] 0.026 | volasertib -0.031 | [3] -0.008 | [4] -0.06 | [5] 0.019 | saracatinib 0.056 | sotrastaurin 0.069 | alvocidib -0.048 | Tubastatin A 0.013 | [6] -0.039 | defactinib 0.01 | [7] 0.054 | encorafenib 0.122 | [8] 0.079 | alisertib -0.043 | [9] 0.021 | gefitinib -0.017

RPS13 (UniProt P62277)
inactive: vemurafenib -0.037 | [1] -0.001 | barasertib 0.009 | [2] -0.066 | volasertib 0.007 | [3] 0.036 | [4] 0.196 | [5] -0.131 | saracatinib 0.011 | sotrastaurin -0.015 | alvocidib 0.041 | Tubastatin A 0.018 | [6] -0.031 | defactinib 0.018 | [7] -0.024 | encorafenib -0.04 | [8] 0.058 | alisertib 0.01 | [9] -0.014 | gefitinib -0.029

RYBP (UniProt Q8N488)
inactive: vemurafenib 0.053 | [1] 0.004 | barasertib -0.013 | [2] 0.15 | volasertib 0.002 | [3] -0.038 | [4] -0.053 | [5] 0.02 | saracatinib -0.003 | sotrastaurin 0.056 | alvocidib -0.116 | Tubastatin A 0.029 | [6] -0.068 | defactinib 0.075 | [7] 0.001 | encorafenib -0.001 | [8] 0.005 | alisertib -0.009 | [9] 0.004 | gefitinib 0.028

RTN4IP1 (UniProt Q8WWV3)
inactive: vemurafenib -0.02 | [1] 0.047 | barasertib -0.049 | [2] -0.018 | volasertib -0.014 | [3] -0.007 | [4] 0.058 | [5] -0.106 | saracatinib -0.048 | sotrastaurin 0.015 | alvocidib 0.042 | Tubastatin A -0.079 | [6] 0.036 | defactinib -0.014 | [7] 0 | encorafenib -0.021 | [8] 0.003 | alisertib -0.111 | [9] 0.019 | gefitinib 0.196

Three consecutive entries out of the list so far, for reference:
RPS13 (UniProt P62277)
inactive: vemurafenib -0.037 | [1] -0.001 | barasertib 0.009 | [2] -0.066 | volasertib 0.007 | [3] 0.036 | [4] 0.196 | [5] -0.131 | saracatinib 0.011 | sotrastaurin -0.015 | alvocidib 0.041 | Tubastatin A 0.018 | [6] -0.031 | defactinib 0.018 | [7] -0.024 | encorafenib -0.04 | [8] 0.058 | alisertib 0.01 | [9] -0.014 | gefitinib -0.029

RYBP (UniProt Q8N488)
inactive: vemurafenib 0.053 | [1] 0.004 | barasertib -0.013 | [2] 0.15 | volasertib 0.002 | [3] -0.038 | [4] -0.053 | [5] 0.02 | saracatinib -0.003 | sotrastaurin 0.056 | alvocidib -0.116 | Tubastatin A 0.029 | [6] -0.068 | defactinib 0.075 | [7] 0.001 | encorafenib -0.001 | [8] 0.005 | alisertib -0.009 | [9] 0.004 | gefitinib 0.028

RTN4IP1 (UniProt Q8WWV3)
inactive: vemurafenib -0.02 | [1] 0.047 | barasertib -0.049 | [2] -0.018 | volasertib -0.014 | [3] -0.007 | [4] 0.058 | [5] -0.106 | saracatinib -0.048 | sotrastaurin 0.015 | alvocidib 0.042 | Tubastatin A -0.079 | [6] 0.036 | defactinib -0.014 | [7] 0 | encorafenib -0.021 | [8] 0.003 | alisertib -0.111 | [9] 0.019 | gefitinib 0.196

Next part.

RPS6 (UniProt P62753)
inactive: vemurafenib 0.006 | [1] -0.027 | barasertib -0.008 | [2] 0.021 | volasertib 0.01 | [3] -0.047 | [4] -0.126 | [5] 0.022 | saracatinib -0.002 | sotrastaurin 0.018 | alvocidib -0.035 | Tubastatin A 0.026 | [6] -0.058 | defactinib 0.007 | [7] 0.025 | encorafenib -0.018 | [8] 0.014 | alisertib 0.019 | [9] -0.01 | gefitinib 0.004

RRM1 (UniProt P23921)
inactive: vemurafenib 0.023 | [1] 0.018 | barasertib 0.011 | [2] -0.065 | volasertib -0.063 | [3] 0.003 | [4] -0.045 | [5] -0.031 | saracatinib -0.02 | sotrastaurin -0.016 | alvocidib -0.004 | Tubastatin A -0.098 | [6] -0.007 | defactinib 0.022 | [7] -0.03 | encorafenib 0.005 | [8] 0.098 | alisertib 0.007 | [9] 0.007 | gefitinib -0.006

RPP38 (UniProt P78345)
inactive: vemurafenib -0.017 | [1] 0.011 | barasertib -0.007 | [2] 0.04 | volasertib 0.004 | [3] -0.011 | [4] -0.113 | [5] 0.024 | saracatinib -0.028 | sotrastaurin -0.004 | alvocidib -0.03 | Tubastatin A 0 | [6] 0.017 | defactinib 0.011 | [7] 0.05 | encorafenib 0.016 | [8] -0.024 | alisertib -0.001 | [9] -0.01 | gefitinib 0.007

RPS16 (UniProt P62249)
inactive: vemurafenib -0.053 | [1] -0.017 | barasertib -0.004 | [2] -0.047 | volasertib -0.002 | [3] 0.053 | [4] 0.157 | [5] -0.073 | saracatinib 0.033 | sotrastaurin -0.001 | alvocidib 0.035 | Tubastatin A -0.169 | [6] -0.032 | defactinib 0.012 | [7] -0.014 | encorafenib 0.004 | [8] 0.032 | alisertib 0.027 | [9] -0.013 | gefitinib -0.018

RPL37 (UniProt P61927)
inactive: vemurafenib -0.018 | [1] 0.044 | barasertib -0.026 | [2] 0.113 | volasertib 0.007 | [3] 0.018 | [4] 0.04 | [5] -0.031 | saracatinib 0.005 | sotrastaurin -0.077 | alvocidib 0.007 | Tubastatin A 0.031 | [6] -0.091 | defactinib 0.077 | [7] 0.051 | encorafenib -0.003 | [8] 0.02 | alisertib 0.005 | [9] -0.011 | gefitinib -0.037

RSBN1 (UniProt Q5VWQ0)
inactive: vemurafenib 0.15 | [1] 0.161 | barasertib 0.002 | [2] 0.026 | volasertib 0.02 | [3] -0.047 | [4] 0 | [5] 0.03 | saracatinib 0.006 | sotrastaurin -0.034 | alvocidib 0.043 | Tubastatin A -0.052 | [6] 0.041 | defactinib -0.02 | [7] 0.04 | encorafenib 0.074 | [8] 0.032 | alisertib -0.069 | [9] -0.019 | gefitinib 0.02

RRP9 (UniProt O43818)
inactive: vemurafenib -0.052 | [1] 0.042 | barasertib -0.038 | [2] -0.114 | volasertib 0.03 | [3] 0.029 | [4] -0.111 | [5] 0.098 | saracatinib 0.069 | sotrastaurin 0.019 | alvocidib -0.018 | Tubastatin A 0.103 | [6] -0.012 | defactinib -0.06 | [7] -0.193 | encorafenib -0.05 | [8] 0.106 | alisertib 0.024 | [9] -0.007 | gefitinib -0.026

RSL1D1 (UniProt O76021)
inactive: vemurafenib -0.007 | [1] -0.001 | barasertib -0.037 | [2] -0.007 | volasertib 0.006 | [3] -0.004 | [4] -0.002 | [5] -0.049 | saracatinib -0.008 | sotrastaurin -0.008 | alvocidib 0.007 | Tubastatin A -0.008 | [6] 0.007 | defactinib 0.024 | [7] -0.016 | encorafenib 0.022 | [8] -0.047 | alisertib -0.011 | [9] -0.014 | gefitinib -0.01
